Data taken from US5924973A, “Method of treating a disease process in a luminal structure” (The Trustees of Columbia University in the City of New York, priority 1996, dated 1999).
At least one compound was matched to its structure with a doubt left.

Assay: Stability of 188Re-MAG3 in presence of Hypaque contrast agent
Assay type: physicochemical
Conditions: at least 1 hour after mixing with Hypaque
Method: Stability of ^188 Re-MAG3 in Presence of Hypaque Contrast Agent
^188 Re-MAG3 was prepared as in the upper case starting with an activity of 851 Mbq (23 mCi). After the End of Synthesis, QC via HPLC and TLC, 2 mL of a 50% Triazoate solution was added. Triazoate is known as Hypaque and is the 3,5-Bis(acetylamino)-2,4,6-triiodobenzoic acid sodium salt.

Question: For `O=C(O)C[N]1C(=O)C[N]2C(=O)C[N]3C(=O)C[S][188Re-]132=[O]` [^188 Re-MAG3], which radiochemical purity maintained is on record?
Answer: Its radiochemical purity maintained is > 90 °.
